Results published in publication doi:10.1101/056713.
Where two headings read alike, the source gives them in different places. Results are given in words; binding and its absence hold for the method and conditions named. In cells and extracts the contact can be indirect. Some results given as binding are weak or reduced against the parent protein; the word gives no strength. Each block holds one molecule with its values, some of them ahead of it.

Sequences of proteins named here, by UniProt entry; tags and fusion partners are left off.
UniProt Q96EQ9: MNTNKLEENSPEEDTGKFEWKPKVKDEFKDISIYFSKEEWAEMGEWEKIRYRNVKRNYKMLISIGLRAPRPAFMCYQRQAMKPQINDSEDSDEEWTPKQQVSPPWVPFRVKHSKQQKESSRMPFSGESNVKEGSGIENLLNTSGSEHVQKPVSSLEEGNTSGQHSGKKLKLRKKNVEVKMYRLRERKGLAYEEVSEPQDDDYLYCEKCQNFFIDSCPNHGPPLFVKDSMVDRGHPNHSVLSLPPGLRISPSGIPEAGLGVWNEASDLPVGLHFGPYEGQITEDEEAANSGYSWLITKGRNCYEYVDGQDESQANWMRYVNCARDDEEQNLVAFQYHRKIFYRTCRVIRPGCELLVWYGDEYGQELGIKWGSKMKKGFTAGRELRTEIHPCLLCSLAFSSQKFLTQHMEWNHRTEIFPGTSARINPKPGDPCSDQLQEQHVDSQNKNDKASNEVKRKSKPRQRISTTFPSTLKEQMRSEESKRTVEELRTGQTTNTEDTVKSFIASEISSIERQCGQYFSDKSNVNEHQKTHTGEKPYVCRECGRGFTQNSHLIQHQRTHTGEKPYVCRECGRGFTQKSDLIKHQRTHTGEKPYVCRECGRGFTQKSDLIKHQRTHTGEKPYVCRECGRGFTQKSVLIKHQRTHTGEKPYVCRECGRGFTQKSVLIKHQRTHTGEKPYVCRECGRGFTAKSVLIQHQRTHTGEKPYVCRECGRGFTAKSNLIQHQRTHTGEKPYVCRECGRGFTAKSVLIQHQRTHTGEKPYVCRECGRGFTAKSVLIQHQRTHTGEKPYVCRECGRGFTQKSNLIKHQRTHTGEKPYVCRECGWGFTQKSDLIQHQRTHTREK
UniProt Q9Z148: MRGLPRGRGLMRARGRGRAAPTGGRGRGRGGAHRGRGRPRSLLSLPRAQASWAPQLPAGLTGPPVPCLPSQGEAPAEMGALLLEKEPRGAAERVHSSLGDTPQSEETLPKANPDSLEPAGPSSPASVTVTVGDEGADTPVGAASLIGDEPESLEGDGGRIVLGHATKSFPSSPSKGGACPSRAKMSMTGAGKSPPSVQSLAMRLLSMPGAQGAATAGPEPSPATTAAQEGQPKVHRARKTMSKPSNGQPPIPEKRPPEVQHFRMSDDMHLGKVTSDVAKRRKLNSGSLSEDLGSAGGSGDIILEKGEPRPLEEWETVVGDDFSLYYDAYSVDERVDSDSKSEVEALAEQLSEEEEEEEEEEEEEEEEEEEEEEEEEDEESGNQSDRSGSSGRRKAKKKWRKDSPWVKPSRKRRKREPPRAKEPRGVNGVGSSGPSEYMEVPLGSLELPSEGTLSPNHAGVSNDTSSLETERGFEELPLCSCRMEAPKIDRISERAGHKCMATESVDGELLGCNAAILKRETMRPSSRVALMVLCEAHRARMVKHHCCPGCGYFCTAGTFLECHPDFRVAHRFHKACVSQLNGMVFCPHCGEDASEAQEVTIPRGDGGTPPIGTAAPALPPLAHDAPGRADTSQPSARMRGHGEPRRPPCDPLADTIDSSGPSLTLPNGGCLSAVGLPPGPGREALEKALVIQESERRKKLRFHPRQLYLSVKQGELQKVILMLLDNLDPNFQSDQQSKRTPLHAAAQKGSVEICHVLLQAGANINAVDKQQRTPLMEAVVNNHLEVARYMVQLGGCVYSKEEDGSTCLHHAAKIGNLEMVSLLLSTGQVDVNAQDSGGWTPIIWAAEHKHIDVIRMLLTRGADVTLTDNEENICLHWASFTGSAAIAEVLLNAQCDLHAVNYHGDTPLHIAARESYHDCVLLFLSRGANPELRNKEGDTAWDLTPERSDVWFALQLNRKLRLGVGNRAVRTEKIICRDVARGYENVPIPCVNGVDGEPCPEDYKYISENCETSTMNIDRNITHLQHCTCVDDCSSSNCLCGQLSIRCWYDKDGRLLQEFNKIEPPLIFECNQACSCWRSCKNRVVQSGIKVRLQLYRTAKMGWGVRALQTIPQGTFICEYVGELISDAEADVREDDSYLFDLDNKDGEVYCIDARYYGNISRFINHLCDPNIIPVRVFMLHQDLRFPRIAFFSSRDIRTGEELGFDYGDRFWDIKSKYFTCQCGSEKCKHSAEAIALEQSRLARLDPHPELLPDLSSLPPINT

What was measured:
Experiment in all cases: co-IP
[1] = biological target: T1, SYCP1, SC central element protein, endogenous in mouse testis (mouse (endogenous in testis)) (UniProt Q62209)
T1 sequence: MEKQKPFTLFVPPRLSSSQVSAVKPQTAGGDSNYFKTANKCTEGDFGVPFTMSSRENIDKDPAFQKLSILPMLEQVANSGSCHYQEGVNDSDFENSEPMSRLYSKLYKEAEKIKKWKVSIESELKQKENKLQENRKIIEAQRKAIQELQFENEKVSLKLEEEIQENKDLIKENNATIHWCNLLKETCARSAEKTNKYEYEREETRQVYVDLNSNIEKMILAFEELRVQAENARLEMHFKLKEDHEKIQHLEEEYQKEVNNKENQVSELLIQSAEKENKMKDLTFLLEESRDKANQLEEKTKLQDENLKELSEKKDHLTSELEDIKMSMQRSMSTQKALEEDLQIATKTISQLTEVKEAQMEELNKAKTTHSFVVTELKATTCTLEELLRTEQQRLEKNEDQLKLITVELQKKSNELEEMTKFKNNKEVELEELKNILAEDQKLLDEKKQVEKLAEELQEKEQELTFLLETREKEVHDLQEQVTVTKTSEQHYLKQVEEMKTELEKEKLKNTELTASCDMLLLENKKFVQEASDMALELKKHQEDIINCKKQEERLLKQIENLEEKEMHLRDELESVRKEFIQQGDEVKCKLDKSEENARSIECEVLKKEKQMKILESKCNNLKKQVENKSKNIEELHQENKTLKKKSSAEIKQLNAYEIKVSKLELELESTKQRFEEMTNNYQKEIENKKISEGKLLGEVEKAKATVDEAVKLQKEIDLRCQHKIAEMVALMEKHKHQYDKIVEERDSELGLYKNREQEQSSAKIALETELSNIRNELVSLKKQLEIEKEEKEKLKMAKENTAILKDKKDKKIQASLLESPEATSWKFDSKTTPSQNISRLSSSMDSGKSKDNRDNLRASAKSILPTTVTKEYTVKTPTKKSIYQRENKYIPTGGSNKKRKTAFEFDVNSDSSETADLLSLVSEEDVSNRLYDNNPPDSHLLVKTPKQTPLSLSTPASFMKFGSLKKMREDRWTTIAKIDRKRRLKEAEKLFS

[2] = biological target: T2, CDYL, endogenous in mouse testis (mouse (endogenous in testis)) (UniProt Q9WTK2)
T2 sequence: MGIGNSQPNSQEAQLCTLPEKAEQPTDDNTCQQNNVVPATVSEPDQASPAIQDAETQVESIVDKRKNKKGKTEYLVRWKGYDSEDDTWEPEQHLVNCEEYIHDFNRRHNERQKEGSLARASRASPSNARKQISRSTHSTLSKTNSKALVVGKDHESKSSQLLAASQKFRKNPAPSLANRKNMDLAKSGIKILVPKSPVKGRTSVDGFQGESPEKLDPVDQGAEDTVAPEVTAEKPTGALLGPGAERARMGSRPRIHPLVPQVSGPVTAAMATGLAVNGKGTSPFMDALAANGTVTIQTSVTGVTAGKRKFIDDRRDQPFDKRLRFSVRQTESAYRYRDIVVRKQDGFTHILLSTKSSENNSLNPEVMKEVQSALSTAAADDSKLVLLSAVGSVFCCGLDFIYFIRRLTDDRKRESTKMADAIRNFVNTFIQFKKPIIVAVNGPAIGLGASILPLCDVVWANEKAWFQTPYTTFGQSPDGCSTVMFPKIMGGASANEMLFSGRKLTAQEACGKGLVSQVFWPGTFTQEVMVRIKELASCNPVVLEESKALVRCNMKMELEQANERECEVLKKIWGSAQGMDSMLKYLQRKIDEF

[3] = biological target: EWSR1, endogenous in mouse testis (mouse (endogenous in testis)) (UniProt Q61545)
[4] = biological target: T3, SYCP3, chromosomal axis/SC lateral element protein, endogenous in mouse testis (mouse (endogenous in testis)) (UniProt P70281)
T3 sequence: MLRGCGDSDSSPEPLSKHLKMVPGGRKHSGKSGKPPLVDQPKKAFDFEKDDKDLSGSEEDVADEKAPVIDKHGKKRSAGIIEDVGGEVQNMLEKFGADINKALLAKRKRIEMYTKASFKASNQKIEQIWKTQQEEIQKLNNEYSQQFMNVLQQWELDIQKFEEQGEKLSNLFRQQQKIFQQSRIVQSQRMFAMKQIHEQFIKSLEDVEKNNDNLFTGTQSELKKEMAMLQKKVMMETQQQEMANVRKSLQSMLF

[5] = biological target: PRDM9, endogenous in mouse spermatocytes (mouse (endogenous in testis)) (UniProt Q96EQ9)
[6] = biological target: EWSR1, endogenous in mouse testis (mouse (endogenous in testis)) (UniProt Q61545); remark: listed apart in the source
[7] = biological target: T4, SYCP3, chromosomal axis/SC lateral element protein, endogenous in mouse testis (mouse (endogenous in testis)), P70281; details: remark: other sources report otherwise
T4 chain: T3 sequence

[8] = biological target: T5, SYCP1, SC central element protein, endogenous in mouse testis (mouse (endogenous in testis)), Q62209; details: remark: other sources report otherwise
T5 chain: T1 sequence

binding [1]: binds weakly
binding [2]: binds
binding [3]: no binding
Molecule: EHMT2, endogenous in mouse testis (from UniProt Q9Z148 1-1263)

binding [2]: no binding
Molecule: EWSR1, endogenous in mouse testis (from UniProt Q61545 1-655)

binding [1]: binds
binding [4]: binds
Molecule: PRDM9, endogenous in mouse spermatocytes (from UniProt Q96EQ9 1-843)

binding [5]: binds
binding [6]: binds weakly
B1: SYCP3, chromosomal axis/SC lateral element protein, endogenous in mouse testis (protein, UniProt P70281 1-254)
chain: T3 sequence

binding [7]: binds
binding [8]: binds
B2: EWSR1, endogenous in mouse testis, Q61545 1-655 (protein)
chain: MASTDYSTYSQAAAQQGYSAYTAQPTQGYAQTTQAYGQQSYGTYGQPTDVSYTQAQTTATYGQTAYATSYGQPPTGYSTPTAPQAYSQPVQGYGTGTYDSTTATVTTTQASYAAQTAYGTQPAYPTYGQQPTATAPTRPQDGNKPAETSQPQSSTGGYNQPSLGYGQSNYSYPQVPGSYPMQPVTAPPSYPPTSYSSSQPTSYDQSSYSQQNTYGQPSSYGQQSSYGQQSSYGQQPPTSYPPQTGSYSQAPSQYSQQSSSYGQQSSFRQDHPSSMGVYGQESGGFSGPGENRSLSGPDNRGRGRGGFDRGGMSRGGRGGGRGGLGAGERGGFNKPGGPMDEGPDLDLGLPIDPDEDSDNSAIYVQGLNDNVTLDDLADFFKQCGVVKMNKRTGQPMIHIYLDKETGKPKGDATVSYEDPPTAKAAVEWFDGKDFQGSKLKVSLARKKPPMNSMRGGMPPREGRGMPPPLRGGPGGPGGPGGPMGRMGGRGGDRGGFPPRGPRGSRGNPSGGGNVQHRAGDWQCPNPGCGNQNFAWRTECNQCKAPKPEGFLPPPFPPPGGDRGRGGPGGMRGGRGGLMDRGGPGGMFRGGRGGDRGGFRGGRGMDRGGFGGGRRGGPGGPPGPLMEQMGGRRGGRGGPGKMDKGEHRQERRDRPY

binding [6]: no binding
B3: CDYL, endogenous in mouse testis (protein, UniProt Q9WTK2 1-593)
chain: T2 sequence

binding [5]: binds
binding [6]: binds weakly
B4: SYCP1, SC central element protein, endogenous in mouse testis (protein, UniProt Q62209 1-993)
chain: T1 sequence
